According to paper PMC12441012:

What was measured:
[1] = tested on: AcNAC30 (Actinidia chinensis); assay: competition with a labelled probe; details: unlabelled probe 0x-200x, dose-dependent reduction of shift of N1; Kit binding buffer (Beyotime chemiluminescent EMSA kit; composition, salt and pH not stated), room temperature 30 min, 6% polyacrylamide gel (printed as denaturing); recombinant protein; protein details: GST (N-terminal, pGEX-4T-1); label: none (unlabelled competitor)
[2] = tested on: AcNAC30 (Actinidia chinensis); assay: EMSA; details: Kit binding buffer (Beyotime chemiluminescent EMSA kit; composition, salt and pH not stated), room temperature 30 min, 6% polyacrylamide gel (printed as denaturing); recombinant protein; protein details: GST (N-terminal, pGEX-4T-1); label: biotin

Sequence | binding result [1] | binding result [2]
TATAAAGATAATGAACATGTCCGACGCTGACCAC (double strand) [AcP5CS1 promoter cold probe] | binds | 
TATAAAGATAATGAACATGTCCGACGCTGACCAC (double strand) [AcP5CS1 promoter EMSA probe] |  | binds

For at least one entry, the source does not settle the construct or the ends of the probe.
